These are yes or no findings as the source states them, for the method shown. Binding seen in cells or lysates may run through a third protein. Some binding calls cover weakened binding; strength is not graded here.

Protein sequences, listed by entry. Tags and fused reporters are not part of them.
UniProt P46937: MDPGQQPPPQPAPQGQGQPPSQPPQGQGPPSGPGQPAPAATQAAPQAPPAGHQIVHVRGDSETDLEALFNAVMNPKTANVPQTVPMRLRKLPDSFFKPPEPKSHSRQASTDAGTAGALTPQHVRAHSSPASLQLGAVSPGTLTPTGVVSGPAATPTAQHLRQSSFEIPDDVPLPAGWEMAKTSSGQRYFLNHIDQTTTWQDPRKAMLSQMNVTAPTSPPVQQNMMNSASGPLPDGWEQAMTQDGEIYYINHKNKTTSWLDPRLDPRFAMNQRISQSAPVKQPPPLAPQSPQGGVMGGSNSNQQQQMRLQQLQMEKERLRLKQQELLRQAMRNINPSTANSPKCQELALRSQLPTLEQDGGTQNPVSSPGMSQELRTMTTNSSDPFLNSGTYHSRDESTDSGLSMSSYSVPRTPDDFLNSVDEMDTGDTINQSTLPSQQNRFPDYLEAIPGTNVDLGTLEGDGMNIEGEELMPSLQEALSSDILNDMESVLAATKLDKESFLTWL

Data on two substances can be found in publication PMC12120113.

In assay [1] the target is T1, VCPIP1 wild type, as used in the domain-mapping Co-IP (Fig. 5G, H) (UniProt Q96JH7).
T1 sequence: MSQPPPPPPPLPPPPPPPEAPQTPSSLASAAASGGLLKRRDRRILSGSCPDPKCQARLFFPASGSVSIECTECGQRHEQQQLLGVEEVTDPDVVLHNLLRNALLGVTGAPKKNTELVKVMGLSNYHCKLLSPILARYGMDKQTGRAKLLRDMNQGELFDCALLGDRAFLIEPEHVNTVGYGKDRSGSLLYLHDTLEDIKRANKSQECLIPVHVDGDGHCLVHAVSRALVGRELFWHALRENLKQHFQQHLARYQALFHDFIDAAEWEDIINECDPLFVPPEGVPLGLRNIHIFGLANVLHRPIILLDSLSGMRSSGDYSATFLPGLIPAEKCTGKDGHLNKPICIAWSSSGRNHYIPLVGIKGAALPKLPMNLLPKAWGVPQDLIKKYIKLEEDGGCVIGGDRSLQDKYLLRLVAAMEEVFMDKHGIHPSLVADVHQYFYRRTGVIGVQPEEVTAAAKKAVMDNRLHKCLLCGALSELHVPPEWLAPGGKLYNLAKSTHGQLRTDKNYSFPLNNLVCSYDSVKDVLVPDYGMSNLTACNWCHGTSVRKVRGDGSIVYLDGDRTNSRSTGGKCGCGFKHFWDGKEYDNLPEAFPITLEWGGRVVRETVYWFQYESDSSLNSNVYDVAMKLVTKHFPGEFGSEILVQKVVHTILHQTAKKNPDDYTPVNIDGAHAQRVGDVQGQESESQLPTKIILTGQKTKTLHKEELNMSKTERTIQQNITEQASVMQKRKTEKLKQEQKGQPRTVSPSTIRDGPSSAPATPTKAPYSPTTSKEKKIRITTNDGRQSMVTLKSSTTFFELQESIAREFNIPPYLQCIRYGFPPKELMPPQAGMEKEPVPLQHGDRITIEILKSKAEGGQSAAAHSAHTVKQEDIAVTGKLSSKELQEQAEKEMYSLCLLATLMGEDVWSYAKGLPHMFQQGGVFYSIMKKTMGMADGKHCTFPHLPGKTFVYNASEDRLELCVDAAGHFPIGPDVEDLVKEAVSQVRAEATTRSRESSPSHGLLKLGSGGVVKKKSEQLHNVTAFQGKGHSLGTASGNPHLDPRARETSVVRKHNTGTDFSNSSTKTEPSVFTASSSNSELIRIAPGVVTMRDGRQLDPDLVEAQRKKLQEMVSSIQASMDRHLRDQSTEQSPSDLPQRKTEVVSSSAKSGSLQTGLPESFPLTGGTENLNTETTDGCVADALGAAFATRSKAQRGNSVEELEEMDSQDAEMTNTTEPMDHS
Put plainly: co-IP; wild-type and truncated VCPIP1 and YAP constructs expressed in cells (cell line and precipitating antibody not stated); western blot.

For assay [2], the target named is T2, VCPIP1 (valosin-containing protein-interacting protein 1), endogenous in PANC-1 cells (human (endogenous in PANC-1)) (UniProt Q96JH7).
T2 sequence: T1 sequence
Put plainly: co-IP; endogenous proteins in PANC-1 lysate; immunoprecipitation with anti-VCPIP1 or anti-YAP antibody or IgG and protein A/G at 4 °C overnight, five washes with lysis buffer, western blot.

As for “YAP wild type, as used in the domain-mapping Co-IP (Fig. 5G, H) (from UniProt P46937 1-504)”, the binding entry in assay [1] is “binds”.
On to “YAP, endogenous in PANC-1 cells (from UniProt P46937 1-504)”, for which, in assay [2], the binding entry was “binds”.
